PubChem BioAssay AID1259308 – NCATS, 2017
This is an unselected part of about 59,000 deposited reagents. About 1,510 of them (2.6%) were called active. 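Calls use total luciferase alone and ignore viability, so some active siRNAs may act by altering cell number.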 Unmarked entries are inactive. Reagents against one gene are numbered here. Further read-outs or replicates are left out here. Reagent sequences are not shown.

- Purpose: 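Genes whose loss raises luciferase production in HEK293 cells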 (primary screen)
- Cells: human HEK293 embryonic kidney cells stably expressing firefly luciferase (HEK-CMV-Luc2-Hygro)
- Knock-down reagent: single siRNA against human genes, 0.8 pmol siRNA per well
- Duration: 72 h
- Read-out: 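Reporter luminescence and viable-cell signal on separate replicate plates, given as percent of non-targeting control and median/MAD z-scores, plus per-cell luciferase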
- Scale: total luciferase, z-score and total luciferase, % of control: higher = more reporter protein produced
- Call rule: 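An siRNA counts as active if its total luciferase robust z-score exceeds 3; genes with two or more such siRNAs out of three were retested with fresh siRNAs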
- Meaning of the calls: active = raised luciferase; inactive = no rise

LRIT1 #1
- total luciferase, z-score: -2.33
- total luciferase, % of control: 35.6

LRIT1 #2
- total luciferase, z-score: 0.694
- total luciferase, % of control: 95.7

LRIT1 #3
- total luciferase, z-score: -0.229
- total luciferase, % of control: 77.3

APOA1 #1
- total luciferase, z-score: -0.475
- total luciferase, % of control: 72.4

APOA1 #2
- total luciferase, z-score: -0.202
- total luciferase, % of control: 77.9

APOA1 #3
- total luciferase, z-score: 0.558
- total luciferase, % of control: 93

UCHL1 #1
- total luciferase, z-score: 0.451
- total luciferase, % of control: 90.9

UCHL1 #2
- total luciferase, z-score: -2.45
- total luciferase, % of control: 33.2

UCHL1 #3
- total luciferase, z-score: -1.23
- total luciferase, % of control: 57.3

TNFRSF10B #1
- total luciferase, z-score: 1.07
- total luciferase, % of control: 103

TNFRSF10B #2
- total luciferase, z-score: 0.74
- total luciferase, % of control: 96.6

TNFRSF10B #3
- total luciferase, z-score: 1.23
- total luciferase, % of control: 106

NECAB1 #1
- total luciferase, z-score: -0.421
- total luciferase, % of control: 73.5

NECAB1 #2
- total luciferase, z-score: -0.583
- total luciferase, % of control: 70.3

NECAB1 #3
- total luciferase, z-score: -0.778
- total luciferase, % of control: 66.4

CLEC12A #1
- total luciferase, z-score: -0.216
- total luciferase, % of control: 77.6

CLEC12A #2
- total luciferase, z-score: 1.84
- total luciferase, % of control: 118

CLEC12A #3
- total luciferase, z-score: -0.974
- total luciferase, % of control: 62.5

KHDRBS3 #1
- total luciferase, z-score: 1.2
- total luciferase, % of control: 106

KHDRBS3 #2
- total luciferase, z-score: -0.885
- total luciferase, % of control: 64.3

KHDRBS3 #3
- total luciferase, z-score: -1.23
- total luciferase, % of control: 57.5

NMRAL1 #1
- total luciferase, z-score: 0.12
- total luciferase, % of control: 84.3

NMRAL1 #2
- total luciferase, z-score: -0.0376
- total luciferase, % of control: 81.1

NMRAL1 #3
- total luciferase, z-score: 2.28
- total luciferase, % of control: 127

NTS #1
- total luciferase, z-score: -0.0343
- total luciferase, % of control: 81.2

NTS #2
- total luciferase, z-score: 0.112
- total luciferase, % of control: 84.1

NTS #3
- total luciferase, z-score: 0.36
- total luciferase, % of control: 89

ZBTB2 #1
- total luciferase, z-score: -2.35
- total luciferase, % of control: 35.2

ZBTB2 #2
- total luciferase, z-score: -1.6
- total luciferase, % of control: 50

ZBTB2 #3
- total luciferase, z-score: 0.613
- total luciferase, % of control: 94.1

MAP3K19 #1
- total luciferase, z-score: 2.24
- total luciferase, % of control: 127

MAP3K19 #2
- total luciferase, z-score: -0.0472
- total luciferase, % of control: 80.9

MAP3K19 #3
- total luciferase, z-score: -0.504
- total luciferase, % of control: 71.9

Reprinted from the entries so far, 4 entries:
APOA1 #3
- total luciferase, z-score: 0.558
- total luciferase, % of control: 93

UCHL1 #1
- total luciferase, z-score: 0.451
- total luciferase, % of control: 90.9

UCHL1 #2
- total luciferase, z-score: -2.45
- total luciferase, % of control: 33.2

UCHL1 #3
- total luciferase, z-score: -1.23
- total luciferase, % of control: 57.3
